The numbers were not newly measured in PMC11728000, “Antitumor Activity and Multi-Target Mechanism of Phenolic Schiff Bases Bearing Methanesulfonamide Fragments: Cell Cycle Analysis and a Molecular Modeling Study” (International Journal of Molecular Sciences, 2024), which cites them from elsewhere.

Among the test systems are EKVX; SW-620; PC-3; MCF-7; SNB-75.
What all share (parameters): method as in https://dtp.cancer.gov/dtpstandard/dwindex/index.jsp
Holding throughout (conditions): ref https://dtp.cancer.gov/dtpstandard/dwindex/index.jsp; cited from earlier work

Regarding `COc1cc2ncnc(Nc3ccc(F)c(Cl)c3)c2cc1OCCCN1CCOCC1` [Gefitinib, gefitinib], the GI50 is 0.0501 µM in the data set on EKVX; 5.01 µM with SW-620; 5.01 µM in the data set with PC-3; 5.01 µM with MCF-7; 5.01 µM with SNB-75.
